Literature values as cited in patent US20260176636A1, “APTAMER-DIRECT INHIBITOR CONJUGATES AND METHODS OF USING THE SAME” (Duke University, priority 2022, published 2026).
At least one structure is not confirmed: it was looked up by name or label, or the drawing left a doubt.

Test system: factor Xa
Details: cited from earlier work

Q: For [H]/N=C(/N)c1ccc(NCc2nc3cc(C(=O)N(CCC(=O)O)c4ccccn4)ccc3n2C)cc1 [DAB, dabigatran, reference compound], which “weaker affinity for factor Xa than for thrombin” value is on record?
A: The value was ~1000 fold.
